# Data from the supplement of paper PMC10849652.
# Protein sequences, listed by entry. Tags and fused reporters are not part of them. Lines headed by an entry give the natural chain unless they say otherwise; changes in a name come on top.
# UniProt H3BUF6: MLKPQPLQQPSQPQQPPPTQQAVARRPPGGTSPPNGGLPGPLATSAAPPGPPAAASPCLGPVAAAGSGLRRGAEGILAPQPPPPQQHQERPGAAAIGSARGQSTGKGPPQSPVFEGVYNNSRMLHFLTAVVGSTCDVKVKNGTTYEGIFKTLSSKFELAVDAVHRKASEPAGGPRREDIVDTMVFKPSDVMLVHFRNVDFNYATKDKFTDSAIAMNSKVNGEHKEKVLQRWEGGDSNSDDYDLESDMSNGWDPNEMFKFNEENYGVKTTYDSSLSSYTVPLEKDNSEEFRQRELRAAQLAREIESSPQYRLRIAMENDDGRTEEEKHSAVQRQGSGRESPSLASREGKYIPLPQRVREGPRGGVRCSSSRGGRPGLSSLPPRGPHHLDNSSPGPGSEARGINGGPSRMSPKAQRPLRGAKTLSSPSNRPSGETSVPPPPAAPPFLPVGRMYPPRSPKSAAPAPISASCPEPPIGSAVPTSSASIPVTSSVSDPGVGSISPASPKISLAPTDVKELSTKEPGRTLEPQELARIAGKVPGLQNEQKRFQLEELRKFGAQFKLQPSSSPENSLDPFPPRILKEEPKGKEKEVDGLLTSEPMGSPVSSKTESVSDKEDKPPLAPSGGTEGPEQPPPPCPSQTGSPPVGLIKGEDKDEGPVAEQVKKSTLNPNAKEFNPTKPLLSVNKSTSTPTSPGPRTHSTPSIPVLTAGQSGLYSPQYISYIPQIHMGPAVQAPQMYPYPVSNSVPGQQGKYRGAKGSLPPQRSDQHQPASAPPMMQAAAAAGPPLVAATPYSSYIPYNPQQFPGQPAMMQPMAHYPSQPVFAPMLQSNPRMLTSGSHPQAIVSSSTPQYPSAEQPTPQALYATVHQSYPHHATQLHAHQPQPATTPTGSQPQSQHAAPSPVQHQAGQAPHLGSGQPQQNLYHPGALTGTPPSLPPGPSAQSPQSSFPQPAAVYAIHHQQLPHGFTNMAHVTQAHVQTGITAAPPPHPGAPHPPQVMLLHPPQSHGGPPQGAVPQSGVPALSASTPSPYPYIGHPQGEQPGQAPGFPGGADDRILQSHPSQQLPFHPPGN
# UniProt Q6UW56: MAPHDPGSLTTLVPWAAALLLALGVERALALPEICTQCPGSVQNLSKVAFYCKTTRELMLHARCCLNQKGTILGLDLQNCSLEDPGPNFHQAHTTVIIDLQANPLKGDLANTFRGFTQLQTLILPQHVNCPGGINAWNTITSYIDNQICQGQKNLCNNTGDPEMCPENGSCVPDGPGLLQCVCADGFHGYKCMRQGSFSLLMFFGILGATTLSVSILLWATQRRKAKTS
# UniProt Q00973: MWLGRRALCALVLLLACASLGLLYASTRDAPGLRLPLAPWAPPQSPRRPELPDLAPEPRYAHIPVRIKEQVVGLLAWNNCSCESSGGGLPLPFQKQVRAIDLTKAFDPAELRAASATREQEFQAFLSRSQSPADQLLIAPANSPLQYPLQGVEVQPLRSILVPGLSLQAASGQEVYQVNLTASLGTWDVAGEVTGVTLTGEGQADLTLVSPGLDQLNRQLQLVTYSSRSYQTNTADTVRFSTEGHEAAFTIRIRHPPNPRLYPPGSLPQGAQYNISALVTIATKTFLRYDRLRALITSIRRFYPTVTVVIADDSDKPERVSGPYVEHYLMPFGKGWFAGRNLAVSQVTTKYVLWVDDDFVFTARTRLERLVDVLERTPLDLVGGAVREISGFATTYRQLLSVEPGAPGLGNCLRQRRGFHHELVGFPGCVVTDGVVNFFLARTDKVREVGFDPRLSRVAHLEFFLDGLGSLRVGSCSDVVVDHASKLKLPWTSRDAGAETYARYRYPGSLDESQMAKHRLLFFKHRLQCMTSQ
# UniProt Q9BYG0: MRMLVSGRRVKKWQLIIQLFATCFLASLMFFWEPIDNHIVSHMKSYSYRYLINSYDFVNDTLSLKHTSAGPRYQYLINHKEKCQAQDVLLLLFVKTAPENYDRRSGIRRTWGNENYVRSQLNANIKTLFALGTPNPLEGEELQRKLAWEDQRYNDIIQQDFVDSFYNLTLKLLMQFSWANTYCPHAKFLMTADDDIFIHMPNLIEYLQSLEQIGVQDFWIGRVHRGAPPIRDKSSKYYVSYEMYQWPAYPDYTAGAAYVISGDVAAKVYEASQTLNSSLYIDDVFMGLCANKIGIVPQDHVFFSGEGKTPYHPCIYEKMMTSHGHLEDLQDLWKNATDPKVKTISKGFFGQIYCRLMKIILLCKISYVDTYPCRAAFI
# UniProt P18847: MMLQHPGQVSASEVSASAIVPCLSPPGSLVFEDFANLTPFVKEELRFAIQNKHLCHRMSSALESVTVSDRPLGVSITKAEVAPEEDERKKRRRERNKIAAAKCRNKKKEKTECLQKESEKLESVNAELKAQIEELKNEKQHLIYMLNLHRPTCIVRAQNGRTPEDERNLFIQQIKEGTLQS
# UniProt P14415, whole entry, looked up: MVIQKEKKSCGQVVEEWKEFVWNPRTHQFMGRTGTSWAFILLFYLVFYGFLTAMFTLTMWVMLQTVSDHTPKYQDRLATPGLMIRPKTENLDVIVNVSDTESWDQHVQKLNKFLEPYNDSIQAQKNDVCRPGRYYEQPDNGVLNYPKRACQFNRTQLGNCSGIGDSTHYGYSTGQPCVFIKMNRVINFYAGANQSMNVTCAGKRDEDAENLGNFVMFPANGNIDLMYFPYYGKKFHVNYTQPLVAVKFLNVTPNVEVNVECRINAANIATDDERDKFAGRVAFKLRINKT
# UniProt O75882: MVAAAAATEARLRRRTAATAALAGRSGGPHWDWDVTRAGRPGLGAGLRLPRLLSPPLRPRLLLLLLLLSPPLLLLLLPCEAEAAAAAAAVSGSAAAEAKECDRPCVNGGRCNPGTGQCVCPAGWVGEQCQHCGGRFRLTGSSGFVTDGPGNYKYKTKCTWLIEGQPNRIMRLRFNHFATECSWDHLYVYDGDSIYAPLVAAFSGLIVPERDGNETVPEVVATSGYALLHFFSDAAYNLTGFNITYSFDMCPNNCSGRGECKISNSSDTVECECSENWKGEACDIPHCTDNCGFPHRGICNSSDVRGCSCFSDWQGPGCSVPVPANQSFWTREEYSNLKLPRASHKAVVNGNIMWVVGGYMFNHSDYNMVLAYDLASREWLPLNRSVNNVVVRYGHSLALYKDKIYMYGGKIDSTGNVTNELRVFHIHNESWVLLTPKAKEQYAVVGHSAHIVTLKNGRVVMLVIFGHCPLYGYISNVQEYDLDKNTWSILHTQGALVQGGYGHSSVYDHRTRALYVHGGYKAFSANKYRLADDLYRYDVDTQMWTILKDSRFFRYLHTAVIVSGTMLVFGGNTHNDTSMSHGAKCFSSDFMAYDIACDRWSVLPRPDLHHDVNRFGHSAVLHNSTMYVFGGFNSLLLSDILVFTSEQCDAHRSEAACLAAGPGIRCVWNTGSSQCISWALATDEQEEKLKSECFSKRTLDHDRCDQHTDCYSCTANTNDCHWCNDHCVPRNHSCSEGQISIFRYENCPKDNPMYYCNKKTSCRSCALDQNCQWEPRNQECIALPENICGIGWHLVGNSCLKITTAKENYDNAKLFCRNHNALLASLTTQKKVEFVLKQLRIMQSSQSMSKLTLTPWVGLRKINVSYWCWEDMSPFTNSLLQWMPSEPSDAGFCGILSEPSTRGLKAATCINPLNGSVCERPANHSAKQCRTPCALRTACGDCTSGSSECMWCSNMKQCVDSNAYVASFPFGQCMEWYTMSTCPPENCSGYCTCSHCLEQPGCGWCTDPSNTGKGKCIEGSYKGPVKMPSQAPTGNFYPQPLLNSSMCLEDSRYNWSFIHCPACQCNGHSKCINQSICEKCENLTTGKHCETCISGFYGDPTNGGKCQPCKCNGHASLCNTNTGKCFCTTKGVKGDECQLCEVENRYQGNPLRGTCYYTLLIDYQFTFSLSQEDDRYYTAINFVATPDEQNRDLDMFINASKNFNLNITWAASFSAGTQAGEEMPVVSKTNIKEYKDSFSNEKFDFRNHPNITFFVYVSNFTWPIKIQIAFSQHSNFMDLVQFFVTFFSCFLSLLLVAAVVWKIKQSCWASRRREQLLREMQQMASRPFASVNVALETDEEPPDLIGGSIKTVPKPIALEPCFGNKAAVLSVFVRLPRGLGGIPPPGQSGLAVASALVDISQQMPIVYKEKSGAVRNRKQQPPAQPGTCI
# UniProt Q96GX2: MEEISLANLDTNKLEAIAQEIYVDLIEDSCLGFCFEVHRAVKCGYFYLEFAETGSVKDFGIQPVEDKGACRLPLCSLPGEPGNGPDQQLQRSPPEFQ
# UniProt P04424, whole entry, looked up: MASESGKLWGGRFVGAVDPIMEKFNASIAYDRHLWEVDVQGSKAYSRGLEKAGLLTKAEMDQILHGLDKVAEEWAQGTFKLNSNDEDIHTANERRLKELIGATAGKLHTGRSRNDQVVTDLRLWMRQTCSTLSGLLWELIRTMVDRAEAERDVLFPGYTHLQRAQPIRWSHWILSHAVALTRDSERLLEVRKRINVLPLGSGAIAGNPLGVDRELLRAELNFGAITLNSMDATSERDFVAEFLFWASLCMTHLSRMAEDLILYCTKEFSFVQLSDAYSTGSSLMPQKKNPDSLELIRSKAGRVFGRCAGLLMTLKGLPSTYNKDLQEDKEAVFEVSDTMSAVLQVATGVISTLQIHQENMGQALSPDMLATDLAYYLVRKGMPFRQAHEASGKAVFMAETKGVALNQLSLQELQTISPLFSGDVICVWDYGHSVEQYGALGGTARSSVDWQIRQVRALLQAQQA
# UniProt Q6ZNE5, whole entry, looked up: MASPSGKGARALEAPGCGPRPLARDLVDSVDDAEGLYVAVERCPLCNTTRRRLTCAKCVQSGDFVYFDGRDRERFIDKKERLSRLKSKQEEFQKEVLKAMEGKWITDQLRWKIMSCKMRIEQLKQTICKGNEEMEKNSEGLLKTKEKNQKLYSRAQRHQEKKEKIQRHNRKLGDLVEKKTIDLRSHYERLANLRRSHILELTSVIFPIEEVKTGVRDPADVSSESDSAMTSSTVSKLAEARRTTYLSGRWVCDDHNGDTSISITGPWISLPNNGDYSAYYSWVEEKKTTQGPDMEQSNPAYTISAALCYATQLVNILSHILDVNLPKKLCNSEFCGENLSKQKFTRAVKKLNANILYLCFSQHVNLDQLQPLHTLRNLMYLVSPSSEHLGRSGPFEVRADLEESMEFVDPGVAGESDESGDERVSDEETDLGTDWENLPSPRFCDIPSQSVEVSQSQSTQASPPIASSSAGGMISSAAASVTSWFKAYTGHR
# UniProt Q6Y288: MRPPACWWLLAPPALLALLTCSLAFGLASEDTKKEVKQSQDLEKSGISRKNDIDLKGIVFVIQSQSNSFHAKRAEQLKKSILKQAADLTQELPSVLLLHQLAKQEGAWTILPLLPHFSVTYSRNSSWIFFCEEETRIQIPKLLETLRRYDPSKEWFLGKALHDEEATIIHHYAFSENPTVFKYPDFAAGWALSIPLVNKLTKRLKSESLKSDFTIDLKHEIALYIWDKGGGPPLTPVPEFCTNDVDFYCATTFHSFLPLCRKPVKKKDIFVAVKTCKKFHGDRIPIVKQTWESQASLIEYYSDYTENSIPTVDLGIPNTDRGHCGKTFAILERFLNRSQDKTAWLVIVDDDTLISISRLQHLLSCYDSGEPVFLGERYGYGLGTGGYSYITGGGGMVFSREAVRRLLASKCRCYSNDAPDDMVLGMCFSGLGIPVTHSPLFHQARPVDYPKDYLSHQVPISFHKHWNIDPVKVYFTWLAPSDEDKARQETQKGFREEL
# UniProt Q9H7T9: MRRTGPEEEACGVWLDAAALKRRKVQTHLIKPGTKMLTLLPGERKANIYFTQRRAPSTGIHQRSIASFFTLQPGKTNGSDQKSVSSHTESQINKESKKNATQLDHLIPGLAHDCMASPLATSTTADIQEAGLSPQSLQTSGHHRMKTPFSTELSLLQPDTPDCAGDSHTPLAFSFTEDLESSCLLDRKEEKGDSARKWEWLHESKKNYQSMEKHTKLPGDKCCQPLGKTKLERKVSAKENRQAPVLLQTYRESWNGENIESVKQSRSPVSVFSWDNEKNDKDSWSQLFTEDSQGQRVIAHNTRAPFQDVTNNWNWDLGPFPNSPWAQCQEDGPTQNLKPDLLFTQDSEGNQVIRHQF
# UniProt Q8NBU5: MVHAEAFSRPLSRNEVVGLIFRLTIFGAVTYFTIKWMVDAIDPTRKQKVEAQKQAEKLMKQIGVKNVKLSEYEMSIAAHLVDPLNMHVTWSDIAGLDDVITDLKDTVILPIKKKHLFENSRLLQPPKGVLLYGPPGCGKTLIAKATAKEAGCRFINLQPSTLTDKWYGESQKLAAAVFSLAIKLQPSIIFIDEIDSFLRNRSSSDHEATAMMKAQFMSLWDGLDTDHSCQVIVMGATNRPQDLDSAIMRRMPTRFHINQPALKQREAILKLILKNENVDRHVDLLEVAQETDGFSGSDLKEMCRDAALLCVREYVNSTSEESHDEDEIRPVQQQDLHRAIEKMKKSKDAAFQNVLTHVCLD
# UniProt P27449, whole entry, looked up: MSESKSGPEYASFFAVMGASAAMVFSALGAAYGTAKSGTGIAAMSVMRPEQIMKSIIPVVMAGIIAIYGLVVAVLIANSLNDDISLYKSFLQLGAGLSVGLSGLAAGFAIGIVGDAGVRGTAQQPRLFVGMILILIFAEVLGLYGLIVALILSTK
# The other results are listed elsewhere or left out.
# Compound: CNC(=O)c1ccc(Nc2ncc(C(F)(F)F)c(NCc3nccnc3N(C)S(C)(=O)=O)n2)cc1 [defactinib]
# Assay: log2 fold change, soluble protein after heating vs DMSO (PISA); higher = thermal stabilisation; K562 lysate, 10 uM; active = over 0.2 and 3.5 SD of the protein, either way, in both replicates (recomputed)
# In short: (§1)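 A 30 min treatment with 10 μM compound was applied to crude K562 extract at 1 mg/mL protein in PBS pH 7.4 with 1 mM MgCl2. Heating for 3 min spanned 48°C-58°C, after which aliquots were pooled, adjusted to 0.5% NP-40 at 4°C and spun at 21,000xg for 90 min. TMTpro 16plex LC-MS/MS of the supernatant, with channel sums equalised, gave values recorded as log-two fold change in thermal stability against solvent controls, from duplicates.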
row,Target,log2 fold change
1,AUH (UniProt Q13825),inactive: -0.169
2,ATRX (UniProt P46100),inactive: -0.05
3,ATXN2L (UniProt H3BUF6),inactive: 0.106
4,AXIN1 (UniProt O15169),inactive: -0.148
5,ATRAID isoform 3 (UniProt Q6UW56),inactive: -0.018
6,B4GALNT1 (UniProt Q00973),inactive: 0.029
7,B3GNT5 (UniProt Q9BYG0),inactive: 0.227
8,AVEN (UniProt Q9NQS1),inactive: -0.097
9,ATF3 (UniProt P18847),inactive: -0.095
10,ATP1B2 (UniProt P14415),inactive: 0.04

# Compound: CNc1nc(-c2ccc3c(N)n[nH]c3c2)cc(N2C[C@@H](C(=O)NC3CCCCC3)CC[C@H]2C)n1
# Assay: as above
# In short: as §1
row,Target,log2 fold change
1,ATRN (UniProt O75882),inactive: -0.035
2,ATP5F1A (UniProt P25705),inactive: -0.005
3,ASCC2 (UniProt Q9H1I8),inactive: -0.003
4,ATXN7L3B (UniProt Q96GX2),inactive: 0
5,ASL (UniProt P04424),inactive: 0.033
6,ATG10 (UniProt Q9H0Y0),inactive: -0.022
7,ATP5F1B (UniProt F8W0P7),inactive: 0.086
8,ATG14 (UniProt Q6ZNE5),inactive: -0.061
9,B3GLCT (UniProt Q6Y288),inactive: 0.026
10,ATL2 (UniProt Q8NHH9),inactive: -0.065
11,ASPM (UniProt Q8IZT6),inactive: 0.06
12,ATE1 isoform 2 (UniProt O95260),inactive: 0.038
13,ASNA1 (UniProt O43681),inactive: -0.01
14,AUNIP isoform 2 (UniProt Q9H7T9),inactive: -0.017
15,ATAD1 (UniProt Q8NBU5),inactive: 0.006
16,AURKB isoform 5 (UniProt Q96GD4),inactive: 0.216
17,ATP6V0C (UniProt P27449),inactive: -0.002
18,ATP7B (UniProt P35670),inactive: 0.034
19,ATXN2L (UniProt Q8WWM7),inactive: 0.027
20,ATXN2 (UniProt F8WB05),inactive: -0.03
21,AUH (UniProt Q13825),inactive: 0.049
22,ATRX (UniProt P46100),inactive: -0.15
23,ATXN2L (UniProt H3BUF6),inactive: -0.103
24,AXIN1 (UniProt O15169),inactive: -0.337
25,ATRAID isoform 3 (UniProt Q6UW56),inactive: -0.019
26,B4GALNT1 (UniProt Q00973),inactive: 0.083
27,B3GNT5 (UniProt Q9BYG0),inactive: -0.114
28,AVEN (UniProt Q9NQS1),inactive: 0.082
29,ATF3 (UniProt P18847),inactive: 0.098
30,ATP1B2 (UniProt P14415),inactive: -0.041
